In all, about 310,000 compounds went through this assay and about 17,000 (5.5%) were called active. The shares of active, inactive and inconclusive entries below differ from those in the screen. Calls follow the shape of the dose curve; as a rule, active = well fitted inhibition curve with a large enough effect; inconclusive = small, poorly fitted or top-dose-only effect, or effect the other way; inactive = no such curve, though single readings can be large or run the other way. Potencies of inconclusive entries are doubtful fits and often do not repeat.
Target: Nuclear receptor ROR-gamma (Mus musculus) (UniProt P51450)
Assay: qHTS for inhibitors of ROR gamma transcriptional activity; also: nearly all actives have a fitted effect of over 60% in size
Conditions: Drosophila S2 Gal4-RORgamma UAS-luciferase reporter, 20 h; series mostly up to 53.6 µM
How it was run: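 A Gal4/UAS one-hybrid system in insect cells: metallothionein-promoter Gal4–ROR gamma fusion plus Photinus luciferase reporter. Copper sulfate 700 uM final, 20 hr ambient incubation, luminescent detection after 10 min with reagent.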
Potency is read from the fitted curve at half-maximal effect.

The chains behind the UniProt entries cited, without tags or fusion partners. Where a name states a change or a piece, a line headed by the entry shows the natural chain unless it says otherwise.
UniProt P51450: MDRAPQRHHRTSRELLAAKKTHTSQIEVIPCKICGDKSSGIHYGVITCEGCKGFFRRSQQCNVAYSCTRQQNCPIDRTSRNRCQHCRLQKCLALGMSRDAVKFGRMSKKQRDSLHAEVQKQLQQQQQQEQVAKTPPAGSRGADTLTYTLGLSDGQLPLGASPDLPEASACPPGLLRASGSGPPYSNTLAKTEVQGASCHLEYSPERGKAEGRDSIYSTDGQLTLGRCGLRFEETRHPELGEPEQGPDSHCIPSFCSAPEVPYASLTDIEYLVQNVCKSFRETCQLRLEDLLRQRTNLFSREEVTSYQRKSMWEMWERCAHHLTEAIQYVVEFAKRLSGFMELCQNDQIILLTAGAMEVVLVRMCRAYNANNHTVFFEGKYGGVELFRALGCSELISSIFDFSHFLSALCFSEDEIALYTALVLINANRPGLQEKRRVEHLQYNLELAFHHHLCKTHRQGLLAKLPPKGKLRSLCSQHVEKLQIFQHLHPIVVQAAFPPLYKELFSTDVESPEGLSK

Compound	Potency
c1nnc2c3c4c(sc3ncn12)CCC4	inconclusive: 3.16 µM [inhibitor, single point]
CC(C)(C)Nc1nc(Cl)nc(Nc2ccccc2)n1	inconclusive: 22.4 µM [activator, single point]
CC(C)Cn1c(=O)c2c(nc3n2CC(C)CN3Cc2ccccc2)n(C)c1=O (stereo unspecified)	inconclusive: 20 µM [activator, single point]
CC(C)(C)NCC(O)COCc1ccc(Cl)cc1 (stereo unspecified)	inactive
COc1ccc(CN2CCN(C(=O)c3ccco3)CC2)cc1OCc1ccccc1	inconclusive: 11.2 µM [activator, partial curve]
Nc1cccc(-c2nc3ccccc3s2)c1	inconclusive: 10 µM [inhibitor, partial curve, poor fit]
Fc1ccc(CNc2nc3ccccc3n3cnnc23)cc1	inactive
CC1CCCN(CC(O)COCC2COc3ccccc3O2)C1 (stereo unspecified)	inconclusive: 14.1 µM [activator, partial curve, poor fit]
COc1ccc(/C=N/NC(=O)c2ccn[nH]2)cc1COc1ccc(F)cc1	inactive
c1ccc(-c2cn3nc4c(nc3n2)CCCC4)cc1	active: 5.01 µM
COc1ccc(-c2ccc(S(=O)(=O)NCC3CCCO3)cc2)cc1 (stereo unspecified)	inconclusive: 10 µM [activator, partial curve]
C/C=C/c1ccc(OCC(O)CNCC(c2ccc(OC)cc2)N(C)C)c(OC)c1 (stereo unspecified)	inactive
O=C(C[n+]1cc(-c2ccc(Cl)c(Cl)c2)n2c1CCC2)N1c2ccccc2Sc2ccccc21	inconclusive: 25.1 µM [inhibitor, single point]
Cc1cc(NCc2ccccc2)n2ncnc2n1	inconclusive: 11.2 µM [activator, single point]
O=C(NCc1ccc(F)cc1)C(c1ccc(F)cc1)N(C(=O)c1csnn1)C1CC1 (stereo unspecified)	inconclusive: 15.8 µM [activator, single point]
O=C1CCCc2c1sc1nc3n(c(=O)c21)CCCCC3	inconclusive: 5.62 µM [activator, single point]
O=S(=O)(c1ccccc1)c1cnc(-c2cccnc2)nc1-c1ccccc1	inactive
O=C(COc1ccc(S(=O)(=O)N2CCCCC2)cc1)N1CCCC1	inactive
Cc1ccc(N2CCCn3c2cc(C)c(C#N)c3=O)cc1C	inconclusive: 1.58 µM [activator, partial curve]
O=C(NNC(=S)NC(=O)c1cccs1)c1ccc(NC(=O)c2ccccc2)cc1	active: 4.47 µM
COc1ccccc1NC(=O)COC(=O)C1C2CC3OC(=O)C1C3C2 (stereo unspecified)	inconclusive: 17.8 µM [inhibitor, single point]
COc1cccc2c1OC1(CCN(C(C)C)CC1)N1N=C(c3cccnc3)CC21 (stereo unspecified)	inconclusive: 5.62 µM [activator, partial curve, poor fit]
COc1ccc(OC)c(C2SCCN2S(C)(=O)=O)c1 (stereo unspecified)	active: 11.2 µM
Cc1ccc(NC(=S)NNS(=O)(=O)c2ccc3ccccc3c2)cc1Cl	active: 11.2 µM
COc1ccc(Cl)cc1NC(=O)CN(c1ccccc1)S(=O)(=O)N(C)C	inactive
Cc1ccc[n+](C(C)C(=O)Nc2ccc(C)c(C)c2)c1 (stereo unspecified)	inactive

Compound	Potency
COc1cccc(/C=N/NC(=O)CSc2nnc(C)n2-c2ccccc2)c1O	active: 7.08 µM
CCCc1nnc(NC(=O)CSc2nc3ccccc3[nH]2)s1	inconclusive: 35.5 µM [inhibitor, single point]
Cc1ccc(-c2csc(=Nc3cccnc3)n2CCCN2CCCC2=O)cc1C	inconclusive: 11.2 µM [activator, partial curve]
CCOc1ccc(-n2cc(C(=O)c3cc(Cl)ccc3O)cc(C#N)c2=O)cc1	inconclusive: 15.8 µM [activator, single point]
COc1ccc(OC)c(N/C(N)=N/c2nc(C)cc(C)n2)c1	inactive
O=C(Nc1ccccc1N1CCN(C(=O)c2ccccc2)CC1)c1ccccc1Cl	inconclusive: 3.55 µM [activator, single point]
Nc1nonc1-n1nnc(C(=O)N/N=C/c2ccoc2)c1CSc1ccccc1	active: 15.8 µM
CC(C)C(=O)N(c1ccc2oc(=O)sc2c1)S(=O)(=O)c1ccccc1	inconclusive: 22.4 µM [inhibitor, single point]
Cc1[nH]c2ccccc2c1/C=N/NC(=O)Nc1ccccc1	inconclusive: 3.16 µM [activator, single point]
COc1ccc(S(=O)(=O)N2CCCC2C(=O)Nc2nc3c(s2)CCCC3)cc1 (stereo unspecified)	inconclusive: 17.8 µM [activator, single point]
CCOC(=O)C1=C(C)NC(=S)NC1c1ccsc1 (stereo unspecified)	active: 11.2 µM
CC(=O)c1cc2c(cc1NC(=O)c1ccc(C)cc1)OCCO2	inconclusive: 3.98 µM [activator, full curve]
CC(C)(C)Nc1nc(NN)nc(NC(C)(C)C)n1	active: 7.08 µM
COC(C(=O)NC1CC1)c1ccccc1 (stereo unspecified)	inconclusive: 35.5 µM [activator, single point]
O=c1c2ccccc2c(C=NCc2ccccn2)c(O)n1-c1ccccc1Cl	active: 11.2 µM
CC(C)CCn1nnnc1CN1CCN(c2ccc(F)cc2)CC1	inactive
O=C(CSc1ccc2nnc(-c3ccccn3)n2n1)N1CCN(c2ccccc2)CC1	inactive
CC(C(=O)Nc1ccccc1)N(C)Cc1cccs1 (stereo unspecified)	inconclusive: 12.6 µM [activator, single point]
Cc1c(OCC(=O)C(C)(C)C)ccc2c3c(c(=O)oc12)CCCC3	inconclusive: 0.0501 µM [inhibitor, single point]
O=C(O)c1cccnc1SCc1cccc(Cl)c1	inconclusive: 11.2 µM [activator, single point]
COc1ccc(C2CC(C(F)(F)F)n3nc(C(=O)N(C)Cc4cn(C)nc4C)c(Cl)c3N2)cc1 (stereo unspecified)	inconclusive: 35.5 µM [activator, single point]
O=C(Nc1ccc(O)c(C(=O)O)c1)c1ccc2c(c1)C(=O)N(CC1CCCO1)C2=O (stereo unspecified)	inconclusive: 11.2 µM [inhibitor, partial curve]
CCC1Sc2ccc(S(=O)(=O)Nc3cc(OC)cc(OC)c3)cc2NC1=O (stereo unspecified)	inactive
CCn1cc2c(c1-c1cccc(C)c1)c(=O)n(C)c(=O)n2C	inactive
CCCC[C@@H](CNC)NC[C@H](Cc1ccc(O)cc1)NCCc1ccc(OCC)cc1	inactive
CC(C)c1ccc(Nc2ncccc2C#N)cc1	inconclusive: 12.6 µM [activator, partial curve]

Compound	Potency
Cc1cc(C)cc(NC(=S)Nc2cccc3cnccc23)c1	active: 12.6 µM
COc1ccc(-c2csc(NC(=O)CSc3n[nH]c(C)n3)n2)cc1	inconclusive: 35.5 µM [activator, single point]
COc1ccc(S(=O)(=O)Cc2ccc(C(=O)N3CCCC3)o2)cc1	inactive
COc1ccc2c(CC(=O)Nc3c(C)n(C)n(-c4ccccc4)c3=O)coc2c1	inconclusive: 12.6 µM [activator, single point]
CN(C)CCCn1cc(C2=C(c3c[nH]c4ccccc34)C(=O)NC2=O)c2ccccc21	inactive
O=C(O)Cn1cc(/C=C/[N+](=O)[O-])c2ccccc21	inactive
CCOC(=O)NC(=O)CSc1nc(C)cc(C(F)(F)F)c1C#N	inconclusive: 3.16 µM [activator, single point]
CC(C)(C)c1cc(OC(=O)c2ccccc2F)ccc1O	inconclusive: 15.8 µM [inhibitor, single point]
O=C(Nc1ccc(F)c(F)c1)C1CCN(S(=O)(=O)c2cccc3nonc23)CC1	inconclusive: 20 µM [activator, partial curve]
CC(=O)Nc1ccc(S(=O)(=O)NCc2ccncc2)cc1	active: 7.08 µM
CC(=O)Nc1sc(N/N=C\c2ccccc2)nc1-c1cccs1	inconclusive: 15.8 µM [inhibitor, single point]
COc1ccc(CN2CCN(c3cc(C)nc4c5c(C)cc(C)nc5nn34)CC2)cc1F	inactive
O=C(Nc1ccccc1F)c1ccccc1-c1ccccc1	inactive
CC(C)c1cc2c(c(O)c1O)[C@@]13CCCC(C)(C)C1CC2OC3=O (stereo partly specified)	active: 14.1 µM
N#CCC(=O)NCCCOC(=O)Nc1ccc(Cl)c(Cl)c1	inconclusive: 12.6 µM [activator, single point]
Cc1ccc(N=Nc2cc(C)ccc2O)c(C)c1	inactive
O=C(NNC(=O)c1cc(OCC(F)(F)F)ccc1OCC(F)(F)F)c1ccc(Cl)c(Cl)c1	inconclusive: 35.5 µM [inhibitor, single point]
CC(=O)Oc1ccc2ccccc2c1C(NC(=O)Cc1ccccc1)c1ccccc1 (stereo unspecified)	inconclusive: 15.8 µM [activator, single point]
O=C(c1ccccc1)c1ccc(Cn2cc(CCCO)nn2)cc1	inconclusive: 5.62 µM [activator, single point]
Cc1cc(C)n(-c2nc(-c3ccccc3)cs2)n1	inconclusive: 17.8 µM [activator, single point]
Cc1ccc(S(=O)(=O)Nc2ccccc2CNc2ccccn2)cc1	inconclusive: 3.55 µM [activator, full curve]
O=C(NC1=NCCS1)c1cccc(S(=O)(=O)N2CCc3ccccc32)c1	inconclusive: 35.5 µM [inhibitor, single point]
COc1ccccc1C(=O)Nc1nsc(-c2ccccc2)n1	inactive
Cc1cc(NC(=O)Cc2c(F)cccc2Cl)no1	inconclusive: 0.112 µM [inhibitor, full curve, poor fit]

Arranged by count of non-hydrogen atoms (smallest number first): 3 of the compounds above.
Compound	Potency
CC(C)(C)c1cc(OC(=O)c2ccccc2F)ccc1O	inconclusive: 15.8 µM [inhibitor, single point]
CCC1Sc2ccc(S(=O)(=O)Nc3cc(OC)cc(OC)c3)cc2NC1=O (stereo unspecified)	inactive
CN(C)CCCn1cc(C2=C(c3c[nH]c4ccccc34)C(=O)NC2=O)c2ccccc21	inactive

— PubChem BioAssay AID2551 (National Center for Advancing Translational Sciences (NCATS), 2010)
